According to the supplement of paper PMC10849652:
The other results are listed elsewhere or left out.

Sequences of proteins named here, by UniProt entry; tags and fusion partners are left off. A change or cut given only in a name is not applied to a line headed by its entry.
UniProt Q9NPJ6: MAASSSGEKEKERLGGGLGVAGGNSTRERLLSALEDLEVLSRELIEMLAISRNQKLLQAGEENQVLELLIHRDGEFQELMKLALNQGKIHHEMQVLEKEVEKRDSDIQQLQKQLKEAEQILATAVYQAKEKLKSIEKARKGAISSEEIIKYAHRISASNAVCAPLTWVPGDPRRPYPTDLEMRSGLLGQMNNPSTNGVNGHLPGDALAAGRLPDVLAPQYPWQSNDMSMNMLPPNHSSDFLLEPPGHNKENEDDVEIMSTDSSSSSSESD
UniProt Q06413, whole entry, looked up: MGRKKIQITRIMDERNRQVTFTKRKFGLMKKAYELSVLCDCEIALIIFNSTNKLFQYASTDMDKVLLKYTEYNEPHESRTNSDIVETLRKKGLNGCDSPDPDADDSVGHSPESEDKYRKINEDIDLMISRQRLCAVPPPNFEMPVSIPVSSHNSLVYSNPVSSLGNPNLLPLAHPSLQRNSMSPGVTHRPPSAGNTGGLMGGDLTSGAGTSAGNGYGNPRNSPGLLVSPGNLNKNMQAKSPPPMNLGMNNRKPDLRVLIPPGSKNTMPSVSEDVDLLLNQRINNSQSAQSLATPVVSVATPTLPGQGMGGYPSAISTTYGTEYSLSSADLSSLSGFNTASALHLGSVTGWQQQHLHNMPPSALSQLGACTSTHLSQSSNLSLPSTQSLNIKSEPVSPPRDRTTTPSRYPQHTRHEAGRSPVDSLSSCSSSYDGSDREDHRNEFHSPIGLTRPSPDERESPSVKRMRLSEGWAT
UniProt Q9H944: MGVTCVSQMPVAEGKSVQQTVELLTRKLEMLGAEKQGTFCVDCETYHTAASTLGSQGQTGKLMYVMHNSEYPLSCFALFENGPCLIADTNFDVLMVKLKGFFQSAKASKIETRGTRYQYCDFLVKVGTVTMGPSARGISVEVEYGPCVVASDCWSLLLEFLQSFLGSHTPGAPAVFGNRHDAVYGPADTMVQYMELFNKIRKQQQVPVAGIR
UniProt Q8NE86: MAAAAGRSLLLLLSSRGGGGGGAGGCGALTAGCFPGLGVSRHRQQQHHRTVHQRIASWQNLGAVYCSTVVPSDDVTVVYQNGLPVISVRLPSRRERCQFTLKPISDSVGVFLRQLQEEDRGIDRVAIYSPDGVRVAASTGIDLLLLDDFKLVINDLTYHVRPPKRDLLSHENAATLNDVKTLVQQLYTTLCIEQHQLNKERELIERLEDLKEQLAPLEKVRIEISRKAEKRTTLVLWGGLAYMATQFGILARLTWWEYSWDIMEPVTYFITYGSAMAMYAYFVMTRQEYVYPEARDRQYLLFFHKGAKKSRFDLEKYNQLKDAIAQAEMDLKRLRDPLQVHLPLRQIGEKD
UniProt O95140: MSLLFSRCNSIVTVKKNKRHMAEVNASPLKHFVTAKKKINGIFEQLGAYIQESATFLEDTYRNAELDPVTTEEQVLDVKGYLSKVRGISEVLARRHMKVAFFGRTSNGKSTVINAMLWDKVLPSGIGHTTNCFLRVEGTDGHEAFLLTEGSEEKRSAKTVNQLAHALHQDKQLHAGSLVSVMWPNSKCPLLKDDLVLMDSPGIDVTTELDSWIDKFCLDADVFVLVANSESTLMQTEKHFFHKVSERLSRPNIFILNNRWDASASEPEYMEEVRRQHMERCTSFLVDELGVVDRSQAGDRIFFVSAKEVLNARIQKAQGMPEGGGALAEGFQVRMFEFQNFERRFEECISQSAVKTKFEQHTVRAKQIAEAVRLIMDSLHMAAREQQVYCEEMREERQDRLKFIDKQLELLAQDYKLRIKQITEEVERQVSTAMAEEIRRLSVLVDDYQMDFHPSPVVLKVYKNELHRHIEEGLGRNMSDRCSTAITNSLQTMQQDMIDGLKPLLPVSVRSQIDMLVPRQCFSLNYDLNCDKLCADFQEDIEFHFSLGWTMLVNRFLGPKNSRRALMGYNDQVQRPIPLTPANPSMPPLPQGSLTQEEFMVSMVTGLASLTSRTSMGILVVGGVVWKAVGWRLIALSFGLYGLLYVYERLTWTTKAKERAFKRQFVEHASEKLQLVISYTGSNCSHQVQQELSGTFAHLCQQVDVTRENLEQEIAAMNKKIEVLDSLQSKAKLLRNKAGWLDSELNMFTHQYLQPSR
UniProt Q8IWA4: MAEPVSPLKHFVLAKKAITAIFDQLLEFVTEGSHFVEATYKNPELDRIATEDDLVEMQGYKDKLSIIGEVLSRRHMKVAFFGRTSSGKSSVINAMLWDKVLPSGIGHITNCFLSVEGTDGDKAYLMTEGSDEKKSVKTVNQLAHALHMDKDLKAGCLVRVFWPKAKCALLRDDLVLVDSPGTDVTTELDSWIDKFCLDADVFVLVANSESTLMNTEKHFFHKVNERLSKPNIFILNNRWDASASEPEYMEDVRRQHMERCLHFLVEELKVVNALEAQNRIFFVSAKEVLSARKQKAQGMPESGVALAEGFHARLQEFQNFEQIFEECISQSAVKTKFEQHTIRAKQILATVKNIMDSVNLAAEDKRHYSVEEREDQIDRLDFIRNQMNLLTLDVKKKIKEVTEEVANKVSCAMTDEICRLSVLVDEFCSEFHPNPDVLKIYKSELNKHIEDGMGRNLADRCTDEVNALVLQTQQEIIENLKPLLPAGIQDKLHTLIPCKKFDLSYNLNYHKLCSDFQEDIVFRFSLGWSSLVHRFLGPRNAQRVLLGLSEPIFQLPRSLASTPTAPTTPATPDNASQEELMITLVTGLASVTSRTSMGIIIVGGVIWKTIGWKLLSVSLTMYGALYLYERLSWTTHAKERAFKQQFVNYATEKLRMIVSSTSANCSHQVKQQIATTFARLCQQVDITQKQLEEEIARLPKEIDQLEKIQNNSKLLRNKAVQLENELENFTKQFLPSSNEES
UniProt Q96RN5: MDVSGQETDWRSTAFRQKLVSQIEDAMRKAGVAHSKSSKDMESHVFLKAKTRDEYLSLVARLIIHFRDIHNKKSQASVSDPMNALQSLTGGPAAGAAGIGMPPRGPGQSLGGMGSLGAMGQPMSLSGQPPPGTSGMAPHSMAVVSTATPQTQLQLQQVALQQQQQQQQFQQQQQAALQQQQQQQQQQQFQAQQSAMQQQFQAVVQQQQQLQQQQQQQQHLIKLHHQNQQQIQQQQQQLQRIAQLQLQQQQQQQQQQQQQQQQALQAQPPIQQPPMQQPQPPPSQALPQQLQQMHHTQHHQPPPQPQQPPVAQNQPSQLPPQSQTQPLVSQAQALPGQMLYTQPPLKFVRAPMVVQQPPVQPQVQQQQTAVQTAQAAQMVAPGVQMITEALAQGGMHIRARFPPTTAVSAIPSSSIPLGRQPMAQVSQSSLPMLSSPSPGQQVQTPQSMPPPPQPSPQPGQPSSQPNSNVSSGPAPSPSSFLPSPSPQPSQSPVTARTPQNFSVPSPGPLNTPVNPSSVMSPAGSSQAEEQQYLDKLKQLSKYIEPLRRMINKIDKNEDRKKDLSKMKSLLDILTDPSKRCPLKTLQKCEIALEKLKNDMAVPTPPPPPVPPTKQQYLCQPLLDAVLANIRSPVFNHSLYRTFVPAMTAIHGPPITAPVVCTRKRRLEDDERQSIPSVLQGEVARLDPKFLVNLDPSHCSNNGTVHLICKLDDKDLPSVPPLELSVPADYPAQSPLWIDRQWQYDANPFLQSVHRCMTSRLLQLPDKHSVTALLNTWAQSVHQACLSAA
UniProt Q93074, whole entry, looked up: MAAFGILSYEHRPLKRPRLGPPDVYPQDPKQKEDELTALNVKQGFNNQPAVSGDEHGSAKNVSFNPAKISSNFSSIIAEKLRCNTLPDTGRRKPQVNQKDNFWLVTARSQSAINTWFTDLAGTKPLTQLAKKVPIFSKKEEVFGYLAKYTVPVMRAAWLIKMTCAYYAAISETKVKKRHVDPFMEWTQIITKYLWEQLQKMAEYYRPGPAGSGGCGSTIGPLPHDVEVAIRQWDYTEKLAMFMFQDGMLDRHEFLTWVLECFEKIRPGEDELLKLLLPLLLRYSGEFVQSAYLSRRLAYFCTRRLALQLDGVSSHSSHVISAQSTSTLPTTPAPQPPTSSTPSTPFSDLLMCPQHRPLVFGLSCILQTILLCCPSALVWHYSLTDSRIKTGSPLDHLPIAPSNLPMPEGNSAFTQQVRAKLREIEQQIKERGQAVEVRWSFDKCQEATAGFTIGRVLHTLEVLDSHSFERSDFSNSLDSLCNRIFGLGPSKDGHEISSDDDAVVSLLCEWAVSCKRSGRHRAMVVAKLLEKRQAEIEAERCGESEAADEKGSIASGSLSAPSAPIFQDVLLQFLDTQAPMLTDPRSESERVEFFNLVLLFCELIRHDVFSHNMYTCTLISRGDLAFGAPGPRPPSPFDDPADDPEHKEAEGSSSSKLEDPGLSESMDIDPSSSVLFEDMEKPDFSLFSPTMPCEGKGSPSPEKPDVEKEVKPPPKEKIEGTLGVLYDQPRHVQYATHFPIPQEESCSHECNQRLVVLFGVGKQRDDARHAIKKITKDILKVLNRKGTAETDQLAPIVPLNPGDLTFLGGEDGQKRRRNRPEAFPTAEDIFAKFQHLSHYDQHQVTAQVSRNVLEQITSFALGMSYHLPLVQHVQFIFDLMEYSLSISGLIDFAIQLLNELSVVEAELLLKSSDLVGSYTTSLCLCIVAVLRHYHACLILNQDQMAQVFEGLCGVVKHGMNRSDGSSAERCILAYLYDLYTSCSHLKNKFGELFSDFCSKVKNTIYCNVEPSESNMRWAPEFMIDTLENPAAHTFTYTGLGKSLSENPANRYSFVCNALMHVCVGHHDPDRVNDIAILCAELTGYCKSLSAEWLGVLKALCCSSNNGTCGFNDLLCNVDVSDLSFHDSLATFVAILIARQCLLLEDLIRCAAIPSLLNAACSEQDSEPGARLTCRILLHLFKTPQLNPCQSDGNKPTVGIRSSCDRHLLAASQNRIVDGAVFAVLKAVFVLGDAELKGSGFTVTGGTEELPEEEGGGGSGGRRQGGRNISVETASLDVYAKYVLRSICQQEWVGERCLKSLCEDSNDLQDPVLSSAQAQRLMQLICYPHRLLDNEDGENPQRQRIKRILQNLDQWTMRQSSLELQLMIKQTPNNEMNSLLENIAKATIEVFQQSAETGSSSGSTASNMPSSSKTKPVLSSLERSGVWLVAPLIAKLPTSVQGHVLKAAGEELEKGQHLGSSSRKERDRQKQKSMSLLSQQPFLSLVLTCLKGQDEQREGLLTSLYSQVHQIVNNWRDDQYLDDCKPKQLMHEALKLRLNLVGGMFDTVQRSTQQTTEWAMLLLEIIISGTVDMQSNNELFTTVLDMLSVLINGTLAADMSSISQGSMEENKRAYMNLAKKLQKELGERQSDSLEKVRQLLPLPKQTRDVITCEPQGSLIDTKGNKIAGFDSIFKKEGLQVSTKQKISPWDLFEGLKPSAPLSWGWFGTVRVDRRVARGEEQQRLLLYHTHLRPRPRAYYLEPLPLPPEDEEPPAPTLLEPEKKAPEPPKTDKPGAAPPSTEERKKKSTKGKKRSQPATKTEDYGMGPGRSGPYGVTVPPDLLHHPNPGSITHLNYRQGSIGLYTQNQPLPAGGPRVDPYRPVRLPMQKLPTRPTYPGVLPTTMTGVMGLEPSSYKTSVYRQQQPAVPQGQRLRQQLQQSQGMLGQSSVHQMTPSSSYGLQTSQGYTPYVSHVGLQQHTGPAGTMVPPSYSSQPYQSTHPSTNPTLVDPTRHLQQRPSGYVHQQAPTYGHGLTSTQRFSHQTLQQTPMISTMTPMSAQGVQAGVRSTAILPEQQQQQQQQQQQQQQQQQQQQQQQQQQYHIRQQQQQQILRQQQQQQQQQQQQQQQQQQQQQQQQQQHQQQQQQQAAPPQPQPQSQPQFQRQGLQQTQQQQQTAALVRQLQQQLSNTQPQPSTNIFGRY
UniProt C9JP00: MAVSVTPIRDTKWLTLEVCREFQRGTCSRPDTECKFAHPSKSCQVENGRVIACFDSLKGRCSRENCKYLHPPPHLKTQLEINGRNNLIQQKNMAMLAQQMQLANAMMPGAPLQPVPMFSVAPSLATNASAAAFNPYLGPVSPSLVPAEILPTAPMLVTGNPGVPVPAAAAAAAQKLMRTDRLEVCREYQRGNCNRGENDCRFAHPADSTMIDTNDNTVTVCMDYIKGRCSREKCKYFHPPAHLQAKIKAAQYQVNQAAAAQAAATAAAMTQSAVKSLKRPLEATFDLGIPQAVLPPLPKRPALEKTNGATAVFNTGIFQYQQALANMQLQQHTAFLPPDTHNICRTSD
UniProt Q9H3U5: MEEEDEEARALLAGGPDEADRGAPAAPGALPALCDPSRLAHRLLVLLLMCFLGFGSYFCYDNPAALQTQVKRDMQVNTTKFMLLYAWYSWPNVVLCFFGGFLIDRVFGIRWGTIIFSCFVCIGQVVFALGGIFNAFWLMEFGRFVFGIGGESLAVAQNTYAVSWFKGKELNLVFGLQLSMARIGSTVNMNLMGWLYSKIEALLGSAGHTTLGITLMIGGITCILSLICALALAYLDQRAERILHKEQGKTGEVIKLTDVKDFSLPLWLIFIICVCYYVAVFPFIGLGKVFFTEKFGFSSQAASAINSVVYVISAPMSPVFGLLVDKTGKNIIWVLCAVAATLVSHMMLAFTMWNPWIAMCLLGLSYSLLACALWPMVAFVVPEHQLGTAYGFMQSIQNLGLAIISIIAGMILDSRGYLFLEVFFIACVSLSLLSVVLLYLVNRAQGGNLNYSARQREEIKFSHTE

What follows are targets tested with C1COCCN1CCN2C3=CC=CC=C3N=C2NC(=O)C4=CC(=CC=C4)[N+](=O)[O-] [IRAK-1-4 Inhibitor I] (assay: log2 fold change, soluble protein after heating vs DMSO (PISA); higher = thermal stabilisation; K562 lysate, 10 uM; active = over 0.2 and 3.5 SD of the protein, either way, in both replicates (recomputed)).
How it was run: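 Following dounce homogenisation of K562 pellets in PBS pH 7.4 with 1 mM MgCl2, crude extract at 1 mg/mL protein was incubated for 30 min with 10 μM compound. Aliquots were then heated for 3 min over 48°C-58°C and pooled, NP-40 was added to 0.5% at 4°C, and soluble protein was recovered as the supernatant at 21,000xg for 90 min. Channel-sum-equalised TMTpro 16plex LC-MS/MS quantified this protein. Each value, from duplicates, is a log-two fold change in thermal stability relative to solvent controls.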

log2 fold change, inactive:
METTL16 (UniProt Q86W50) -0.004
MEX3D isoform 3 (UniProt Q86XN8) 0.077
MED4 (UniProt Q9NPJ6) 0.009
MEF2C isoform 5 (UniProt Q06413) -0.079
MED22 isoform 2 (UniProt Q15528) 0.083
MFSD10 (UniProt Q14728) 0.13
MDH1 isoform 3 (UniProt P40925) 0.007
MCM4 (UniProt P33991) -0.002
METTL2A (UniProt Q96IZ6) 0.042
MED8 isoform 2 (UniProt Q96G25) -0.005
MCFD2 (UniProt Q8NI22) 0.011
MESD (UniProt Q14696) -0.02
METTL7A (UniProt Q9H8H3) 0.036
MED20 (UniProt Q9H944) -0.002
MEF2D (UniProt Q14814) 0.009
MCU (UniProt Q8NE86) 0.064
MAZ isoform 2 (UniProt P56270) 0.003
MBOAT2 (UniProt Q6ZWT7) -0.065
MDN1 (UniProt Q9NU22) 0.008
MFN2 (UniProt O95140) 0.016
MED14 (UniProt O60244) 0.005
MFGE8 (UniProt Q08431) 0
ME1 (UniProt P48163) -0.012
MFN1 (UniProt Q8IWA4) 0.004
METAP1 (UniProt P53582) 0.036
MED13L (UniProt Q71F56) 0.061
MCM5 (UniProt P33992) -0.013
MED15 (UniProt Q96RN5) -0.001
MED7 (UniProt O43513) -0.023
MED12 isoform 2 (UniProt Q93074) -0.035
METAP2 (UniProt P50579) -0.015
MBNL1 (UniProt C9JP00) 0.087
MED13 (UniProt Q9UHV7) 0.045
MED26 (UniProt O95402) 0.012
MED1 (UniProt Q15648) 0.012
MED17 (UniProt Q9NVC6) -0.012
MED30 (UniProt Q96HR3) -0.025
MFSD1 isoform 6 (UniProt Q9H3U5) -0.072

Quoted at random: 3 entries already listed, in no set order.
log2 fold change, inactive:
MDH1 isoform 3 (UniProt P40925) 0.007
MED13 (UniProt Q9UHV7) 0.045
MED4 (UniProt Q9NPJ6) 0.009
